We go through 42 sequences from publication PMC7819943, “Rice protein-binding microarrays: a tool to detect cis-acting elements near promoter regions in rice”.

The list shows a part of the results.

This assay has as its target T1, OsSMF1 (Oryza sativa, UniProt Q6ZLB0 1-436).
T1 sequence: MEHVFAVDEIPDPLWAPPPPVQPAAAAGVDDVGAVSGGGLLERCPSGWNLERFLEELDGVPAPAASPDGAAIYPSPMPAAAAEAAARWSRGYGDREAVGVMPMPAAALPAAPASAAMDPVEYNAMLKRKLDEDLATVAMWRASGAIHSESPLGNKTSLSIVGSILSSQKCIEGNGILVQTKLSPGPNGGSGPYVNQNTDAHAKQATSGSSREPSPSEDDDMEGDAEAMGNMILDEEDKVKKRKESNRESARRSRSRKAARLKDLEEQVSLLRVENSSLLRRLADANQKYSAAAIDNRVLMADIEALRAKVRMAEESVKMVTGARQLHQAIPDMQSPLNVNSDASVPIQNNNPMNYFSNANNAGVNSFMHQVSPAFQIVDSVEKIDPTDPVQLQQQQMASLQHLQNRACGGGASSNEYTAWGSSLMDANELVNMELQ
Description: protein-binding microarray (RPBM); PBS, 2% BSA, 51.3 ng/ul salmon testes DNA, 50 uM zinc acetate, 200 nM TF, 25 C, 1 h; high values mean tight binding. The settings on record: protein: recombinant; tags: N-terminal polyhistidine and DsRed monomer fusion (pET32a); chain copies: 2; label: CyDye5-dUTP incorporated in the synthesized complementary strand; 3' TTTTT single-stranded linker to array surface; dsDNA, one strand shown. The procedure, abridged:
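Per-feature fluorescence intensity (arbitrary units), read on an Axon 4000B scanner, is the binding signal. Transcription factors carrying an N-terminal polyhistidine tag and DsRed fusion were expressed in E. coli BL21-CodonPlus and purified on Ni–NTA. A custom Agilent array, made double-stranded by primer extension with Cy5-dUTP and blocked with 2% BSA, was incubated with 200 nM protein in PBS, 2% BSA, salmon testes DNA and 50 µM zinc acetate at 25 °C for 1 h and then washed.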
Consider “GTTTACCGTACTAGAGGTGCTGAGTGTGCCAGCTTGCTGCCGGAGTCACCTAGTGCAG”, for which the binding signal was 4090 fluorescence intensity (a.u.).
Then “CTGAACCTCTCAGTTTGAGTCACTTTCATAGCATCATTGTCGGAGTCACCTAGTGCAG”, with 4450 fluorescence intensity (a.u.).
For the sequence “AGATAGTGGTGGTGGTCTGTGCATCGTTGACTTGATCATGCGGAGTCACCTAGTGCAG”, the binding signal is 3360 fluorescence intensity (a.u.).
Then “ACAAAACTAGCCGAACAATGACACGTCGCTTTCGTTTAGTCGGAGTCACCTAGTGCAG”, with 8240 fluorescence intensity (a.u.); and “GTGTCATTTCATTCACTGGTCGGCTATATCTGGGCATATGCGGAGTCACCTAGTGCAG”, with 53800 fluorescence intensity (a.u.); and “GGAACTGATTGTATGCCTTCTGACTGTATAAACTATTCATCGGAGTCACCTAGTGCAG”, with 4660 fluorescence intensity (a.u.).
Then “TGGTTTATGTGACGTTTGCGTGGCTTCTTTGATTAGGTATCGGAGTCACCTAGTGCAG”, with 6330 fluorescence intensity (a.u.); and “GAGCTTTCTGATTTGCCACGACGACGTATCGAACGGCCAGCGGAGTCACCTAGTGCAG”, with 4990 fluorescence intensity (a.u.); and “CGCGACATCGTGACGGCGCGCGTCGCCGCCGACCCCGCCGCGGAGTCACCTAGTGCAG”, with 36200 fluorescence intensity (a.u.).
Then “AGACTGAGCACACACCCACACCTGCCACGTGTCCCTGGTTCGGAGTCACCTAGTGCAG”, with 31900 fluorescence intensity (a.u.); and “TCGCTTCCCCGACGCCAATCCACGACACCTCTCGTGCTCCCGGAGTCACCTAGTGCAG”, with 3820 fluorescence intensity (a.u.); and “ATCCTCACGAAACAAACGCATAAGGTGAGCGATGAGTCATCGGAGTCACCTAGTGCAG”, with 5700 fluorescence intensity (a.u.).
Take “ATAAACAAGTACAAGAGGAGGGGACAGGGGTGCGGTGTGTCGGAGTCACCTAGTGCAG”: the binding signal is 4170 fluorescence intensity (a.u.).
Then “GGGCGGTTTTCTGCAAAAGTGCATCCAACAGGTGAGAGAGCGGAGTCACCTAGTGCAG”, with 3640 fluorescence intensity (a.u.).
Then “ACCATGGCTTTGAATTCTTTTACTGCACGTGTACAGATGTCGGAGTCACCTAGTGCAG”, with 3960 fluorescence intensity (a.u.); and “GTAGGATGTTGCCCTGCAACTCACGTCACTTCTCATAAGACGGAGTCACCTAGTGCAG”, with 4280 fluorescence intensity (a.u.); and “ACCGCAGATGTTGTAAGCGAGCCAATGTTGTCATGTGGGCCGGAGTCACCTAGTGCAG”, with 3870 fluorescence intensity (a.u.).
Regarding “AAAGGCCACGCCACGCCACGCAACCGTCGTCGCGCTCCATCGGAGTCACCTAGTGCAG”, the binding signal is 16400 fluorescence intensity (a.u.).
Then “CATAGGTTTCGTCCGACGTGTCGTTTTGGCTCAAGCGTCACGGAGTCACCTAGTGCAG”, with 12300 fluorescence intensity (a.u.); and “GCCCATCCGAACACGGCCTGACAGGCTGTGATGACGGCCTCGGAGTCACCTAGTGCAG”, with 3680 fluorescence intensity (a.u.).
Then “GAAAATCGTTTACCTAGTAGTGTCTTTAGCAGGTTTTCTCCGGAGTCACCTAGTGCAG”, with 9500 fluorescence intensity (a.u.); and “AGATAGACAAACCAAAACAAAACTAAGCTTCAAGTCCAAACGGAGTCACCTAGTGCAG”, with 26400 fluorescence intensity (a.u.).
For the sequence “CCCACATCGCTCCGCGTCATTAGATTTAGCACTTTATCTTCGGAGTCACCTAGTGCAG”, the binding signal is 5240 fluorescence intensity (a.u.).
For the sequence “GTCGGAAGCTATCGAGACGATGGAGAGGGATGGAAGATATCGGAGTCACCTAGTGCAG”, the binding signal was 31800 fluorescence intensity (a.u.).
Then “GTTGCACGACTTATCAACGTGTTATGTACTTATGTGCCATCGGAGTCACCTAGTGCAG”, with 3440 fluorescence intensity (a.u.); and “CACTGTCAGGATTGCCTCCCCGGTGCATGCACACATCCTCCGGAGTCACCTAGTGCAG”, with 3940 fluorescence intensity (a.u.); and “AACGAAGATTTAAGTAGTACACTGATCGGGATGAGGTGGCCGGAGTCACCTAGTGCAG”, with 4260 fluorescence intensity (a.u.).
Then “GCCTTTCTCTCCACCGCGATTTCTATATATAAAACGCCCCCGGAGTCACCTAGTGCAG”, with 9620 fluorescence intensity (a.u.).
Then “CGACCACCTTTCATCCCAACGCACATACGCACCTACGCATCGGAGTCACCTAGTGCAG”, with 3160 fluorescence intensity (a.u.).
With “GAGAGAGGTTGTGCAAGGCTGAGCATGCAAACTCGTGCATCGGAGTCACCTAGTGCAG”, the binding signal was 27000 fluorescence intensity (a.u.).
Then “GTGTATATATACGTGTACATGCATGTACACGCAATCTCTCCGGAGTCACCTAGTGCAG”, with 8340 fluorescence intensity (a.u.); and “CTGGCCTACAAGGGAGGTTGGACATGACAAGGACTCCAGGCGGAGTCACCTAGTGCAG”, with 4000 fluorescence intensity (a.u.).
As to “ACCGAAAGTGAGACGAGCTGCCCAGTTTTCCACACTCCATCGGAGTCACCTAGTGCAG”, the binding signal was 3400 fluorescence intensity (a.u.).
Then “CTCCACAGCAGCTTGCCGGCCTCCTTGCTTTGCATTGCATCGGAGTCACCTAGTGCAG”, with 15400 fluorescence intensity (a.u.).
Then “CACGAGCTGGTGGGCATCGAGGACTCCACACACGCGCATCCGGAGTCACCTAGTGCAG”, with 42800 fluorescence intensity (a.u.).
Then “AAAGAAGGAAAGGTGGTAGTACTACGTGTCAGGTCCATGGCGGAGTCACCTAGTGCAG”, with 7360 fluorescence intensity (a.u.).
As to “AAGTTTGGCTGTATTTATTCCACACCATAATTGAAAGTTTCGGAGTCACCTAGTGCAG”, the binding signal was 3160 fluorescence intensity (a.u.).
“ACTTCCCTTTCGAGGAGTGCATGAACTTTGAGACGTCAGCCGGAGTCACCTAGTGCAG”: the binding signal was 4090 fluorescence intensity (a.u.).
Then “CAACCTTCCTCGTGCCGCCCATTGCGTGGTCACCACCCTTCGGAGTCACCTAGTGCAG”, with 4060 fluorescence intensity (a.u.); and “CTCCGATACGTATCCCGTACGTATCGCTATTTACTTCGATCGGAGTCACCTAGTGCAG”, with 4930 fluorescence intensity (a.u.).
Then “GAGAGGAGGCTGCTGTGGCCACGCTAGCATGTGGAGCTCACGGAGTCACCTAGTGCAG”, with 4550 fluorescence intensity (a.u.).
Then “TGTATTGTGGGCCCACACGTCATCCTTTCTTTCCAACCCTCGGAGTCACCTAGTGCAG”, with 22300 fluorescence intensity (a.u.).
